# Experimental data: the supplement of paper PMC4604168 (melanoma cell lines)
# Some of the results follow. Many values rest on one well or one pass, so single values are uncertain.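 Imaging used 1,536-well plates; nuclei positive for cleaved PARP by antibody were divided by total DNA-stained nuclei to yield the apoptosis fraction. Doses for screening kept most cells viable, and cell lines differ markedly in resting and induced cleaved-PARP levels.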
# Tested on: LB2518-MEL
# Test: cleaved PARP positive nuclei fraction relative to DMSO control; melanoma cells; higher = more apoptosis
# Details: library dose: low library concentration; 72 h
row,Structure (SMILES),cleaved PARP positive nuclei fraction
1,"CS(=O)(=O)c1ccc(C(=O)Nc2ccc(Cl)c(-c3ccccn3)c2)c(Cl)c1 [vismodegib] + CCCCCCCCc1ccc(CCC(N)(CO)CO)cc1 [fingolimod] (first compound 1 µM, partner dose 2 µM)",132%
2,"C[C@@H](N)c1ccc(C(=O)Nc2ccnc3[nH]ccc23)cc1 + Nc1ncn([C@H]2C[C@H](O)[C@@H](CO)O2)c(=O)n1 [decitabine] (first compound 0.4 µM, partner dose 0.1 µM)",114%
3,"C[C@]1(O)C[C@@H](c2nc(-c3ccc4ccc(-c5ccccc5)nc4c3)c3c(N)nccn32)C1 + CS(=O)(=O)c1ccc(C(=O)Nc2ccc(Cl)c(-c3ccccn3)c2)c(Cl)c1 [vismodegib] (first compound 0.4 µM, partner dose 1 µM)",107%
4,"C[C@@H](N)c1ccc(C(=O)Nc2ccnc3[nH]ccc23)cc1 + CCCS(=O)(=O)Nc1ccc(F)c(C(=O)c2c[nH]c3ncc(Cl)cc23)c1F [PLX4720] (first compound 0.4 µM, partner dose 0.08 µM)",241%
5,"CN(c1ncccc1CNc1nc(Nc2ccc3c(c2)CC(=O)N3)ncc1C(F)(F)F)S(C)(=O)=O + O=C(O)c1ccc2c(c1)nc(Nc1cccc(Cl)c1)c1ccncc12 [CX4945] (first compound 0.08 µM, partner dose 0.4 µM)",87.8%
6,"NC(=O)c1ccc(N(C(N)=O)c2c(F)cccc2F)nc1-c1ccc(F)cc1F + C=CCNC1=C2C[C@@H](C)C[C@H](OC)[C@H](O)[C@@H](C)/C=C(\C)[C@H](OC(N)=O)[C@@H](OC)/C=C\C=C(/C)C(=O)NC(=CC1=O)C2=O [Tanespimycin] (first compound 0.4 µM, partner dose 0.002 µM)",104%
